# Assay results: US9345731B2, “Herbal extract as sensitivity enhancer toward insulin and antidiabetes” (PT. DEXA MEDICA, priority 2008, dated 2016)
# At least one structure is not confirmed: it was looked up by name or label, or the drawing left a doubt.
# Test system: insulin resistance adipocytes 3T3 Swiss Albino cells
# Experiment: Glucose uptake by insulin resistance adipocytes (anthrone reagent, spectrophotometer)
# Assay type: cell-based
# Settings: 5 μg/ml extract combination or 0.02 μM pioglitazone, 48 hours incubation, then 5 mg/ml glucose for 0, 2, 4, 6 hours
# Experimental: FIG. 12 is the graphic of glucose measurement results obtained from insulin resistance adipocytes 3T3 Swiss Albino after administration of 5 μg/ml Lythraceae and Lauraceae family plant combination extracts or 0.02 μM pioglitazone and/or 25 nM insulin during 48 hours incubation, then incubation with 5 mg/ml glucose for 0, 2, 4, 6 hours. 3T3 Swiss Albino cells were differentiated until 3T3 Swiss Albino pre-adipocytes and 3T3 Swiss Albino adipocytes cells were obtained. Each cell type received excessive glucose for over 2 weeks. Incubated cells received such excessive glucose were used as insulin resistance model. After that, those four type cells obtained were tested for its ability to uptake glucose in media. The remaining glucose level was analyzed so that the glucose level uptaken by each 3T3 Swiss Albino cell type could be determined. To measure glucose level that was uptaken by cell, we used an experiment method which is initialized by culturing 3T3 Swiss Albino cells in 6 cm-diameter plates. […] Glucose concentration that was uptaken by cells was measured by subtracting the initial glucose concentration with the remaining glucose in media at the end of incubation time. […] The reaction result was quantified by spectrophotometer.
compound,measurement,value
CCc1ccc(CCOc2ccc(CC3SC(=O)NC3=O)cc2)nc1 (stereo not shown) [pioglitazone],glucose uptake compared with untreated cells / control,able to uptake much more glucose than control
